Test results published in patent US20190040132A1 (FRED HUTCHINSON CANCER RESEARCH CENTER, published 2019).
Results are given in words; binding and its absence hold for the method and conditions named. Some results given as binding are weak or reduced against the parent protein; the word gives no strength.

Sequences of proteins named here, by UniProt entry; tags and fusion partners are left off. A change or cut given only in a name is not applied to a line headed by its entry.
UniProt Q01973: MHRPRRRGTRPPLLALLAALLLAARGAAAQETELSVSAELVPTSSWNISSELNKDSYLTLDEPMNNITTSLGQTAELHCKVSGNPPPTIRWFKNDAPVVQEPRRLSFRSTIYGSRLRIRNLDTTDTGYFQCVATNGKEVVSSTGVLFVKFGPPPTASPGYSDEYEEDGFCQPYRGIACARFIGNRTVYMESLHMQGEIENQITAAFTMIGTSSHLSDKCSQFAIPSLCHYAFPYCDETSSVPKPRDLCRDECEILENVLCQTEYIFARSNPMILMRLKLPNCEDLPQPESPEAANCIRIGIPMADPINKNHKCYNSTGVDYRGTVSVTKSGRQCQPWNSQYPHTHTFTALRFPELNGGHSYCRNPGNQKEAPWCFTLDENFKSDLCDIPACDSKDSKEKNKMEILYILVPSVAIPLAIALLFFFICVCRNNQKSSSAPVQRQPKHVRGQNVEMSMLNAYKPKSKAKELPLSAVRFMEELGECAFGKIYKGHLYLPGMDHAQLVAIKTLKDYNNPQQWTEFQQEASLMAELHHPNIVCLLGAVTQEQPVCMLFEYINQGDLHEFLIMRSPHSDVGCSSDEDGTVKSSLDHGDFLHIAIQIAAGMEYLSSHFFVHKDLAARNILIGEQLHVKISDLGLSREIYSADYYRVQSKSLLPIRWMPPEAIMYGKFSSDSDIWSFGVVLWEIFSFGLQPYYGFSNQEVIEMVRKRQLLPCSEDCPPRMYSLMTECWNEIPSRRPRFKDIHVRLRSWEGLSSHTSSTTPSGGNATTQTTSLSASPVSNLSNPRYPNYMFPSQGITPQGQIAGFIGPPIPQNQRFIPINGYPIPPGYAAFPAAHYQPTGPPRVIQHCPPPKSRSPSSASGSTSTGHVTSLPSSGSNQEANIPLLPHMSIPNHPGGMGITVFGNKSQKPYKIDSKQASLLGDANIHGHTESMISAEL

Assays:
[1] = biological target: human full-length ROR1 (ROR1_v1) (human) (UniProt Q01973); experiment: IHC on FFPE CLL and MCL lymph nodes
[2] = biological target: human full-length ROR1 (ROR1_v1) (human) (UniProt Q01973); experiment: IHC on FFPE cell lines; also immunoblot showing a 130 kDa band in K562/ROR1, CLL, MCL and tumor line lysates
[3] = biological target: human full-length ROR1 (ROR1_v1) (human) (UniProt Q01973); experiment: summary of IHC and immunoblot in Example 4
[4] = biological target: human full-length ROR1 (ROR1_v1) (human) (UniProt Q01973); experiment: IHC on ovarian cancer tissue microarrays
[5] = biological target: rhesus ROR1_v1 (rhesus macaque); experiment: IHC on K562 and rhesus T cells transduced with rhesus ROR1
[6] = biological target: human full-length ROR1 (ROR1_v1) (human) (UniProt Q01973); experiment: IHC on FFPE tumor samples
[7] = biological target: human full-length ROR1 (ROR1_v1) (human) (UniProt Q01973); experiment: IHC on FFPE K562/ROR1 cells
[8] = biological target: rhesus ROR1_v1 (rhesus macaque); experiment: IHC on K562 cells and rhesus T cells expressing rhesus ROR1
[9] = biological target: human full-length ROR1 (ROR1_v1) (human) (UniProt Q01973); experiment: IHC on FFPE tumor tissue
[10] = biological target: human full-length ROR1 (ROR1_v1) (human) (UniProt Q01973); experiment: immunoblot (WES) of CLL cell lysate
[11] = biological target: human full-length ROR1 (ROR1_v1) (human) (UniProt Q01973); experiment: IHC on FFPE K562/ROR1 cells; also on CLL and MCL lymph nodes
[12] = biological target: T1, human ROR1 peptide 786-…-814 (human); experiment: cytometric bead array carrying ROR1 peptides
T1 sequence (peptide): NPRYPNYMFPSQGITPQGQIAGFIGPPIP

[13] = biological target: human full-length ROR1 (ROR1_v1) (human) (UniProt Q01973); experiment: summary of immunoblot and IHC in Example 3
[14] = biological target: human full-length ROR1 (ROR1_v1) (human) (UniProt Q01973); experiment: IHC on FFPE lung cancer sub-types
[15] = biological target: human full-length ROR1 (ROR1_v1) (human) (UniProt Q01973); experiment: immunoblot of CLL cell lysate with hybridoma supernatant
[16] = biological target: human full-length ROR1 (ROR1_v1) (human) (UniProt Q01973); experiment: immunoblot of CLL and normal tissue lysates

- binding [1]: binds
- binding [2]: binds
- binding [3]: binds
- binding [4]: binds
- binding [5]: binds
- binding [6]: binds
- binding [7]: binds
- binding [8]: binds
- binding [9]: binds
- binding [10]: binds
- binding [11]: binds
- binding [12]: binds
- binding [13]: binds
- binding [14]: binds
- binding [15]: binds
- binding [16]: binds
B1: anti-ROR1 monoclonal antibody 6D4 (antibody, V domains shown)
VH: SGPELVKPGTSVKMSCKASGYTFTDYYMNWVKQTHGKNLEWIGRVNPSNGNTDYNQKFKGKATLTVDKSLSTAYMQLSSLTSEDSAVYYCGRLAYWGQGSLVTVSA
VL: LTQSPASLAVSPGQRATISCKASQSVDYDGETYMNWYQQKSGQPPKLLIYAASNLESGIPARFSGSGSGTDFTLNIHPVEEEDAATYYCLQTLKNPYTFGGGTKLEIK
notes: Mouse monoclonal antibody from a hybridoma, used as supernatant or purified; also called mAb 6D4; clone 6D4
